The results in this text go back to US20040115191A1.

For assay [1], the target named is T1, IL-17D (UniProt Q8TAD2).
T1 sequence (iodinated in the BHK cell assay (residues not stated), looked up): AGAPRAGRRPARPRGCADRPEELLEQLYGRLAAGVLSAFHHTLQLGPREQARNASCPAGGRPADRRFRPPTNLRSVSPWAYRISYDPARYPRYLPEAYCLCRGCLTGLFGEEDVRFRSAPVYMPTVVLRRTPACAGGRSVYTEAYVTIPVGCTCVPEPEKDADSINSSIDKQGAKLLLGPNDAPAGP
The assay is described as follows: secretion trap technique.

Assay [2] addresses T1, IL-17D. Nature of the assay: binding of iodinated IL-17D to BHK cells transfected with MSP-5 cDNA.

No constants are given. Whether binding was seen depends on the method and setting. Some binding calls cover weakened binding; strength is not graded here.

B1: Membrane-Spanning Protein-5 (MSP-5) (receptor)
chain: EPHPHATIRGSHGGRKVPLVSPDSSRPARFLRHTGRSRGIERSTLEEPNLQPLQRRRSVPVLRLARPTEPPARSDINGAAVRPEQRPAARGSPREMIRDEGSSARSRMLRFPSGSSSPNILASFAGKNRVWVISAPHASEGYYRLMMSLLKDDVYCELAERHIQQIVLFHQAGEEGGKVRRITSEGQILEQPLDPSLIPKLMSFLKLEKGKFGMVLLKKTLQVEERYPYPVRLEAMYEVIDQGPIRRIEKIRQKGFVQKCKASGVEGQVVAEGNDGGGGAGRPSLGSEKKKEDPRRAQVPPTRESRVKVLRKLAATAPALPQPPSTPRATTLPPAPATTVTRSTSRAVTVAARPMTTTAFPTTQRPWTPSPSHRPPTTTEVITARRPSVSENLYPPSRKDQHRERPQTTRRPSKATSLESFTNAPPTTISEPSTRAAGPGRFRDNRMDRREHGHRDPNVVPGPPKPAKEKPPKKKAQDKILSNEYEEKYDLSRPTASQLEDELQVGNVPLKKAKESKKHEKLEKPEKEKKKKMKNENADKLLKSEKQMKKSEKKSKQEKEKSKKKKGGKTEQDGYQKPTNKHFTQSPKKSVADLLGSFEGKRRLLLITAPKAENNMYVQQRDEYLESFCKMATRKISVITIFGPVNNSTMKIDHFQLDNEKPMRVVDDEDLVDQRLISELRKEYGMTYNDFFMVLTDVDLRVKQYYEVPITMKSVFDLIDTFQSRIKDMEKQKKEGIVCKEDKKQSLENFLSRFRWRRRLLVISAPNDEDWAYSQQLSALSGQACNFGLRHITILKLLGVGEEVGGVLELFPINGSSVVEREDVPAHLVKDIRNYFQVSPEYFSMLLVGKDGNVKSWYPSPMWSMVIVYDLIDSMQLRRQEMAIQQSLGMRCPEDEYAGYGYHSYHQGYQDGYQDDYRHHESYHHGYPY
On to B1, for which the binding result with IL-17D [1] and with IL-17D [2] was “binds” each time.
